{"source": "paper PMC8126939", "about": "“The TBC1D31/praja2 complex controls primary ciliogenesis through PKA‐directed OFD1 ubiquitylation” (The EMBO Journal, 2021)", "molecules": {"B1": {"name": "TBC1D31 C-terminus (residues 940–970), yeast two-hybrid clone (domain or fragment, UniProt Q96DN5-1 940-970)", "chain": "EEEAKKWKEAEGKEFRLRSAKKASALSDASR"}, "B2": {"name": "flag-praja2 (protein, UniProt O43164 1-708)", "chain": "MSQYTEKEPAAMDQESGKAVWPKPAGGYQTITGRRYGRRHAYVSFKPCMTRHERSLGRAGDDYEVLELDDVPKENSSGSSPLDQVDSSLPSEPIFEKSETEIPTCGSALNQTTESSQSFVAVHHSEEGRDTLGSSTNLHNHSEGEYIPGACSASSVQNGIALVHTDSYDPDGKHGEDNDHLQLSAEVVEGSRYQESLGNTVFELENREAEAYTGLSPPVPSFNCEVRDEFEELDSVPLVKSSAGDTEFVHQNSQEIQRSSQDEMVSTKQQNNTSQERQTEHSPEDAACGPGHICSEQNTNDREKNHGSSPEQVVRPKVRKLISSSQVDQETGFNRHEAKQRSVQRWREALEVEESGSDDLLIKCEEYDGEHDCMFLDPPYSRVITQRETENNQMTSESGATAGRQEVDNTFWNGCGDYYQLYDKDEDSSECSDGEWSASLPHRFSGTEKDQSSSDESWETLPGKDENEPELQSDSSGPEEENQELSLQEGEQTSLEEGEIPWLQYNEVNESSSDEGNEPANEFAQPAFMLDGNNNLEDDSSVSEDLDVDWSLFDGFADGLGVAEAISYVDPQFLTYMALEERLAQAMETALAHLESLAVDVEVANPPASKESIDGLPETLVLEDHTAIGQEQCCPICCSEYIKDDIATELPCHHFFHKPCVSIWLQKSGTCPVCRRHFPPAVIEASAAPSSEPDPDAPPSNDSIAEAP"}}, "key": {"[1]": {"biological_target": "T1, GST-praja2_(531–631) (human) (UniProt O43164)", "T1 sequence": "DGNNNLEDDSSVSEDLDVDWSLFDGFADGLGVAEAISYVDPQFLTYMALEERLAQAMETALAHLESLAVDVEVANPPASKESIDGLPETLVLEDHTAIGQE", "experiment": "pull-down; GST-fused proteins immobilised on glutathione beads, incubated three hours with cell lysates (0.5% NP40 buffer), washed three times, immunoblot; only the target purified"}, "flag-praja2 (human)": {"biological_target": "T2, flag-praja2 (human) (UniProt O43164)", "T2 sequence": "B2 chain", "experiment": "co-IP; lysates of transfected HEK293 cells (150 mM NaCl, 50 mM Tris-HCl pH 7.5, 1 mM EDTA, 0.5% NP40), overnight with anti-flag antibody or control IgG, immunoblot"}, "[2]": {"biological_target": "T3, flag-praja2 ring mutant (human) (UniProt O43164)", "T3 sequence": "B2 chain with C634A, C637A", "experiment": "co-IP; lysates of transfected HEK293 cells (150 mM NaCl, 50 mM Tris-HCl pH 7.5, 1 mM EDTA, 0.5% NP40), overnight with anti-flag antibody or control IgG, immunoblot"}, "[3]": {"biological_target": "C-terminus of praja2 (yeast two-hybrid bait)", "experiment": "two-hybrid; yeast two-hybrid screening, C-terminus of praja2 as bait, human brain cDNA library"}, "[4]": {"biological_target": "GST-TBC1D31_(940–970) (human) (UniProt Q96DN5)", "experiment": "pull-down; GST-fused proteins immobilised on glutathione beads, incubated three hours with cell lysates (0.5% NP40 buffer), washed three times, immunoblot; only the target purified"}}, "note": "Where a chain is given by its changes, count along the chain named. Results are given in words; binding and its absence hold for the method and conditions named. A result given as binding can be weak or reduced; the word gives no strength. For some assays here: In cells and extracts the contact can be indirect. For some assays here: Tags and fused reporters may be left off the sequences shown."}
{"molecule": "GFP-TBC1D31 (from UniProt Q96DN5-3)", "values": [{"measurement": "binding", "setting": "[1]", "value": "binds"}, {"measurement": "binding", "setting": "flag-praja2 (human)", "value": "binds"}, {"measurement": "binding", "setting": "[2]", "value": "binds"}]}
{"molecule": "B1", "values": [{"measurement": "binding", "setting": "[3]", "value": "binds"}]}
{"molecule": "B2", "values": [{"measurement": "binding", "setting": "[4]", "value": "binds"}]}
